Measured values reported in paper doi:10.1101/2023.04.06.535844.
These are yes or no findings as the source states them, for the method shown. Binding seen in cells or lysates may run through a third protein. These calls come from enrichment with a bait or labelling near it, and not all partners need be listed.

Sequences of proteins named here, by UniProt entry; tags and fusion partners are left off. Residues count along the entry.
UniProt P28799, residues 18-593: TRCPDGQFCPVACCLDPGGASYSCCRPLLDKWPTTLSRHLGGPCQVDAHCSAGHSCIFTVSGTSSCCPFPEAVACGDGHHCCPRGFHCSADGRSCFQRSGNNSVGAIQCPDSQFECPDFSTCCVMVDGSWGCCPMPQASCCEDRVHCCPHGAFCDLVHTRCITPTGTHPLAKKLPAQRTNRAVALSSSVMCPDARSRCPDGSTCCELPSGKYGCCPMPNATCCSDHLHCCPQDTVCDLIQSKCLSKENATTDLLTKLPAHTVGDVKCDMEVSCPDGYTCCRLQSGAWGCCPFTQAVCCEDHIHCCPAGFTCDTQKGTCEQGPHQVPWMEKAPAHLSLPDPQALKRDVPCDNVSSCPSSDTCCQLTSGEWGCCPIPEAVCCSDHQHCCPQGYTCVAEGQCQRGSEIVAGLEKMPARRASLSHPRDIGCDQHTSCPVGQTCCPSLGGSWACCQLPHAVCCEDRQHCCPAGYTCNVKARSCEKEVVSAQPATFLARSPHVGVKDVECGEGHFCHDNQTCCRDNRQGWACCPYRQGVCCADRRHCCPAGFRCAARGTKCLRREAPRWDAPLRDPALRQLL
UniProt P11021, residues 19-654: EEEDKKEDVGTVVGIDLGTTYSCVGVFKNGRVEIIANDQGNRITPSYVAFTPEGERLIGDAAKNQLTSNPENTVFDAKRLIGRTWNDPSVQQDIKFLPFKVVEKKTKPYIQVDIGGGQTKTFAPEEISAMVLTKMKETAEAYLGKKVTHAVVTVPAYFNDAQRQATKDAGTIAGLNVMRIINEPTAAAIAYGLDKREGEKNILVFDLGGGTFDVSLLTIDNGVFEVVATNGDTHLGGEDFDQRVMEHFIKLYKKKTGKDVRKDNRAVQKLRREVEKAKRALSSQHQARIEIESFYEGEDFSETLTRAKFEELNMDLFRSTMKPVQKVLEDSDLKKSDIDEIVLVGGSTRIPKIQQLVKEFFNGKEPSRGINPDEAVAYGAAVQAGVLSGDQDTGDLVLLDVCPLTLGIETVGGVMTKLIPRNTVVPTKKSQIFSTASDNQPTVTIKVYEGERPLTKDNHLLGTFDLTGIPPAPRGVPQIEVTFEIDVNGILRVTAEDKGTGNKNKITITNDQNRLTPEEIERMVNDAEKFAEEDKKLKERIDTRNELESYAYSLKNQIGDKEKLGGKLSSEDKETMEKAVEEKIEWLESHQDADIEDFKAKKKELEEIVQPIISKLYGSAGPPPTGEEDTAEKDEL

B1: sPLA2-IIA, endogenous in HEPG2 cells (enzyme, UniProt P14555 21-144)
chain: NLVNFHRMIKLTTGKEAALSYGFYGCHCGVGGRGSPKDATDRCCVTHDCCYKRLEKRGCGTKFLSYKFSNSGSRITCAKQDSCRSQLCECDKAAATCFARNKTTYNKKYQYYSNKHCRGSTPRC
B2: prosaposin (PSAP), endogenous in HEPG2 cells (protein, UniProt P07602 17-524)
chain: GPVLGLKECTRGSAVWCQNVKTASDCGAVKHCLQTVWNKPTVKSLPCDICKDVVTAAGDMLKDNATEEEILVYLEKTCDWLPKPNMSASCKEIVDSYLPVILDIIKGEMSRPGEVCSALNLCESLQKHLAELNHQKQLESNKIPELDMTEVVAPFMANIPLLLYPQDGPRSKPQPKDNGDVCQDCIQMVTDIQTAVRTNSTFVQALVEHVKEECDRLGPGMADICKNYISQYSEIAIQMMMHMQPKEICALVGFCDEVKEMPMQTLVPAKVASKNVIPALELVEPIKKHEVPAKSDVYCEVCEFLVKEVTKLIDNNKTEKEILDAFDKMCSKLPKSLSEECQEVVDTYGSSILSILLEEVSPELVCSMLHLCSGTRLPALTVHVTQPKDGGFCEVCKKLVGYLDRNLEKNSTKQEILAALEKGCSFLPDPYQKQCDQFVAEYEPVLIEILVEVMDPSFVCLKIGACPSAHKPLLGTEKCIWGPSYWCQNTETAAQCNAVEHCKRHVWN
B3: DJC10, endogenous in HEPG2 cells (protein, UniProt Q8IXB1 33-793)
chain: DQDFYSLLGVSKTASSREIRQAFKKLALKLHPDKNPNNPNAHGDFLKINRAYEVLKDEDLRKKYDKYGEKGLEDNQGGQYESWNYYRYDFGIYDDDPEIITLERREFDAAVNSGELWFVNFYSPGCSHCHDLAPTWRDFAKEVDGLLRIGAVNCGDDRMLCRMKGVNSYPSLFIFRSGMAPVKYHGDRSKESLVSFAMQHVRSTVTELWTGNFVNSIQTAFAAGIGWLITFCSKGGDCLTSQTRLRLSGMLDGLVNVGWMDCATQDNLCKSLDITTSTTAYFPPGATLNNKEKNSILFLNSLDAKEIYLEVIHNLPDFELLSANTLEDRLAHHRWLLFFHFGKNENSNDPELKKLKTLLKNDHIQVGRFDCSSAPDICSNLYVFQPSLAVFKGQGTKEYEIHHGKKILYDILAFAKESVNSHVTTLGPQNFPANDKEPWLVDFFAPWCPPCRALLPELRRASNLLYGQLKFGTLDCTVHEGLCNMYNIQAYPTTVVFNQSNIHEYEGHHSAEQILEFIEDLMNPSVVSLTPTTFNELVTQRKHNEVWMVDFYSPWCHPCQVLMPEWKRMARTLTGLINVGSIDCQQYHSFCAQENVQRYPEIRFFPPKSNKAYHYHSYNGWNRDAYSLRIWGLGFLPQVSTDLTPQTFSEKVLQGKNHWVIDFYAPWCGPCQNFAPEFELLARMIKGKVKAGKVDCQAYAQTCQKAGIRAYPTVKFYFYERAKRNFQEEQINTRDAKAIAALISEKLETLRNQGKRNKDEL

Target: GFP-PGRN (human progranulin), expressed in HEPG2 cells (human) (UniProt P28799)
Experiment: affinity purification with mass spectrometry

| Molecule | binding |
| --- | --- |
| BIP, endogenous in HEPG2 cells (from UniProt P11021 19-654) | binds |
| B1 | binds |
| B2 | binds |
| B3 | binds |
